Drawing on article PMC4287497, “Phosphorylation of Elp1 by Hrr25 Is Required for Elongator-Dependent tRNA Modification in Yeast” (PLoS Genetics, 2015), this text covers binding for two molecules.

Results are given in words; binding and its absence hold for the method and conditions named. In cells and extracts the contact can be indirect. Some binding calls cover weakened binding; strength is not graded here. For part of these data: Tags and fused reporters may be left off the sequences shown.

The target in test [1] is T1, Elp1-HA (S7 Fig) (S. cerevisiae) (UniProt Q06706).
T1 sequence: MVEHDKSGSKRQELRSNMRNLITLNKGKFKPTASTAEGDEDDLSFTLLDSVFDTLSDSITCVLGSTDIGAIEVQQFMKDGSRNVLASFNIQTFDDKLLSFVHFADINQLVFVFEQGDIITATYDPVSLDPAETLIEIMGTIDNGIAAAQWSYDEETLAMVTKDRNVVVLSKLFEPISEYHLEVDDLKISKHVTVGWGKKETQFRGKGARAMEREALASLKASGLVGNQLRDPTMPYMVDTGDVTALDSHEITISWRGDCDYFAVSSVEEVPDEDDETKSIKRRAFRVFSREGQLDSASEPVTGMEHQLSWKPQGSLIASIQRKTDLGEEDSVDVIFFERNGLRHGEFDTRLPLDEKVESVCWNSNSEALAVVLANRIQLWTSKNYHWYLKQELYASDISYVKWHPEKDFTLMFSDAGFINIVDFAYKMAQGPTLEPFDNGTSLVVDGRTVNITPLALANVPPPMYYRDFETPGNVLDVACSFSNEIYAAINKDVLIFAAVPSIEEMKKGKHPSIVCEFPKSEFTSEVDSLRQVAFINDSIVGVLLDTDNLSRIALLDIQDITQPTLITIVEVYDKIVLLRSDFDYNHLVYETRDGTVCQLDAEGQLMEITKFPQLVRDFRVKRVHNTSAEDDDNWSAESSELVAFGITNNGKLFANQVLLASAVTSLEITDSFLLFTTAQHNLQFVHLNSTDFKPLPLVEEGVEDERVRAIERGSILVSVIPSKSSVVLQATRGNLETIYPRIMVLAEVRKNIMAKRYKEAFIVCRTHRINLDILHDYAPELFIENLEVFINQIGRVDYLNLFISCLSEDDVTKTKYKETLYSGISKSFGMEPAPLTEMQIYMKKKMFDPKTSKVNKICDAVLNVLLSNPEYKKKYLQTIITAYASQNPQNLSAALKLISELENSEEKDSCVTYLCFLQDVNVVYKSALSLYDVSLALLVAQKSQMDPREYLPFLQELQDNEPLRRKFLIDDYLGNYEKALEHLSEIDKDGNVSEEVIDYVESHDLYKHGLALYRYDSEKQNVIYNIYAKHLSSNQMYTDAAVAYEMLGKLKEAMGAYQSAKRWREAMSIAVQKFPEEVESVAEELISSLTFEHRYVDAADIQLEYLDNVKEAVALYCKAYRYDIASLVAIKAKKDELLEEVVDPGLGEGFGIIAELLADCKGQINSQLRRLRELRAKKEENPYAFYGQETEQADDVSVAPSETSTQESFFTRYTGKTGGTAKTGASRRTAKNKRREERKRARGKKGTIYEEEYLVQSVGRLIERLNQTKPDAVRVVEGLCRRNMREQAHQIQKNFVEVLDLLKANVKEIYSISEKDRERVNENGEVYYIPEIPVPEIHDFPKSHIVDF
Description: co-IP; Elp1-HA immunoprecipitated from extracts of HRR25 and hrr25-2 strains; Western blot with anti-HA, anti-myc and anti-Hrr25; untagged ELP1 as control.

Test [2] has as its target T2, Elp1-S1198E S1202E-6HA (S. cerevisiae) (UniProt Q06706).
T2 sequence: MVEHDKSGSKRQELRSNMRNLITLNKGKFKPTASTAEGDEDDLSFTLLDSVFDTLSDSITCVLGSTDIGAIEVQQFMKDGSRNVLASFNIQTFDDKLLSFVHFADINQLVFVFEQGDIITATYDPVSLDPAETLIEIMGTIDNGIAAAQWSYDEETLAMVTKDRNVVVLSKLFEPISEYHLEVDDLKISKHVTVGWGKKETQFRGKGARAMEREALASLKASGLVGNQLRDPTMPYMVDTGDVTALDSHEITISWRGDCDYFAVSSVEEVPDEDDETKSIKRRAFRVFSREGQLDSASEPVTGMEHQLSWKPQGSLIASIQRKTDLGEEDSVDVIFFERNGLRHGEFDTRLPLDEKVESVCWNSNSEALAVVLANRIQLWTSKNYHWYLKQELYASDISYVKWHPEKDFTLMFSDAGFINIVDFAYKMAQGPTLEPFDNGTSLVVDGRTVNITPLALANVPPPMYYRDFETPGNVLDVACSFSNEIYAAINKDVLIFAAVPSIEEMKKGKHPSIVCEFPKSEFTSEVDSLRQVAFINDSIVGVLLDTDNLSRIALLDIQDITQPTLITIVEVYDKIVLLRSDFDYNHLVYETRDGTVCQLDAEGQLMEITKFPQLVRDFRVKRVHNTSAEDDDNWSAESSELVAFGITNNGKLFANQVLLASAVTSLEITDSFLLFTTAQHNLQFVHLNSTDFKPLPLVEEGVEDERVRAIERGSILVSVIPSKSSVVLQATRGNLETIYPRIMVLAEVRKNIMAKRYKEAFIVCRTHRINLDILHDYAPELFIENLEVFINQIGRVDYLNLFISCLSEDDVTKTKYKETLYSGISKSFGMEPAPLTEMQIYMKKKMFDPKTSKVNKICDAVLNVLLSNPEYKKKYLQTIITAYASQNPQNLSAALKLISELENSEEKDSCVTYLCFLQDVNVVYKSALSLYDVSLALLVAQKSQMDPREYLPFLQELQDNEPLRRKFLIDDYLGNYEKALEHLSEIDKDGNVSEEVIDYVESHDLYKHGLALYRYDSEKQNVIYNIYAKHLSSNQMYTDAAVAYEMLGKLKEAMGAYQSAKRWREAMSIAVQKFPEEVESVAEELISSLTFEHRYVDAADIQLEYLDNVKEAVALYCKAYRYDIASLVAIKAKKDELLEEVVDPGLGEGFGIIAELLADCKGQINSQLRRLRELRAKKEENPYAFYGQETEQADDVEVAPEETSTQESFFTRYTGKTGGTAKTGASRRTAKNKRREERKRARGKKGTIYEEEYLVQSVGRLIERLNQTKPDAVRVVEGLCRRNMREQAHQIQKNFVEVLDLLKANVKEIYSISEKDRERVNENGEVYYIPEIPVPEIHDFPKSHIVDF
Description: co-IP; Elp2-myc immunoprecipitated from extracts of elp1Δ yeast strains carrying plasmid-borne ELP1-6HA alleles (antibody coupled to Dynabeads, B60 buffer); Western blot with anti-myc, anti-HA and anti-Hrr25. For orientation: A western blot detects proteins with antibodies after separation by electrophoresis.

Test [3] addresses T3, Elp1-GFP (wild-type, genomic copy tagged) (S. cerevisiae) (UniProt Q06706).
T3 sequence: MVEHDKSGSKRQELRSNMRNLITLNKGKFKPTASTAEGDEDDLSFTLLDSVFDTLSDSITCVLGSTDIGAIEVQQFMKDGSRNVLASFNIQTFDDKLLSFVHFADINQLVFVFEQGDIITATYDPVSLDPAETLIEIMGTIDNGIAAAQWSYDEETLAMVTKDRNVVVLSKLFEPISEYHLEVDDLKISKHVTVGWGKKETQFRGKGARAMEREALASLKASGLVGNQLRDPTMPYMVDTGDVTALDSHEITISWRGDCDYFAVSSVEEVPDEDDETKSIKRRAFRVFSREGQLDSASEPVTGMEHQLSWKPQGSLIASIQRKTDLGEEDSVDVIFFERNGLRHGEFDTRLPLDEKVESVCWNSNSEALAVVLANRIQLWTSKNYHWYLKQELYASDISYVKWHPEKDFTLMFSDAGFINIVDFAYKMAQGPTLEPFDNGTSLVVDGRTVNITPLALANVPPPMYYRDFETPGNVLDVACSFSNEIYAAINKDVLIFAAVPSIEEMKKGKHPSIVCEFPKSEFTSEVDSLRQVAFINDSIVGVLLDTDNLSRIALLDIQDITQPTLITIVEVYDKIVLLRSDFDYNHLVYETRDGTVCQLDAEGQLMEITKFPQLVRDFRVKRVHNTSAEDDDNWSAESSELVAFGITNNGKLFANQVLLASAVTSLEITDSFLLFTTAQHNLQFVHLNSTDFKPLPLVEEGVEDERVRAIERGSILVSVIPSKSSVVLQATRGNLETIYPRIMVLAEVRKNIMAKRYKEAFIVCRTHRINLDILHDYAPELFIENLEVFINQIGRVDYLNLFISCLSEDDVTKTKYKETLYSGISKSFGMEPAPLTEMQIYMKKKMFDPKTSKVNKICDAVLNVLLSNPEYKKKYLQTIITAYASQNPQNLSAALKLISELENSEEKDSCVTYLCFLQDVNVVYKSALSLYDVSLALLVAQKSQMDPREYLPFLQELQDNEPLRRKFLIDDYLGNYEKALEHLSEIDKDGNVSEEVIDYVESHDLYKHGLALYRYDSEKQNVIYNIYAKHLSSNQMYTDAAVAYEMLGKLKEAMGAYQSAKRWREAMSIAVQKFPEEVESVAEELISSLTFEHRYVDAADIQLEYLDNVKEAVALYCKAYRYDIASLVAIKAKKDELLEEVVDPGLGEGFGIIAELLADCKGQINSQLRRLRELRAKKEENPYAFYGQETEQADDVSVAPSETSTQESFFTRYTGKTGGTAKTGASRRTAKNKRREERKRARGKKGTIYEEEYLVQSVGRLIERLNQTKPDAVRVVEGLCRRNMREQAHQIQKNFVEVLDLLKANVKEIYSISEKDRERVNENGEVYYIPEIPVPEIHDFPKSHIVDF
Description: co-IP; GFP-tagged Elp1 (genomic locus) precipitated with GFP-trap from yeast extracts; Western blot with anti-GFP and anti-HA; densitometry of Kti12-HA normalised to Elp1-GFP, wild type set to 1.0.

B1: Hrr25 protein kinase (casein kinase I), endogenous (enzyme, UniProt P29295 1-494)
chain: MDLRVGRKFRIGRKIGSGSFGDIYHGTNLISGEEVAIKLESIRSRHPQLDYESRVYRYLSGGVGIPFIRWFGREGEYNAMVIDLLGPSLEDLFNYCHRRFSFKTVIMLALQMFCRIQYIHGRSFIHRDIKPDNFLMGVGRRGSTVHVIDFGLSKKYRDFNTHRHIPYRENKSLTGTARYASVNTHLGIEQSRRDDLESLGYVLIYFCKGSLPWQGLKATTKKQKYDRIMEKKLNVSVETLCSGLPLEFQEYMAYCKNLKFDEKPDYLFLARLFKDLSIKLEYHNDHLFDWTMLRYTKAMVEKQRDLLIEKGDLNANSNAASASNSTDNKSETFNKIKLLAMKKFPTHFHYYKNEDKHNPSPEEIKQQTILNNNAASSLPEELLNALDKGMENLRQQQPQQQVQSSQPQPQPQQLQQQPNGQRPNYYPEPLLQQQQRDSQEQQQQVPMATTRATQYPPQINSNNFNTNQASVPPQMRSNPQQPPQDKPAGQSIWL
B1: the binding result in test [1] and in test [2] was “binds” throughout.

B2: Kti12-HA6 (natural protein, S. cerevisiae, UniProt P34253 1-313, looked up)
chain: MPLVLFTGYPCSGKTTLAKHLVQLLQSKIDATPSLSKYSITYHSDESLGIKHSDYITSQDERKLRSEIISAVKRDLSKNKIVIVDSLNYIKGFRYQLHCEVKNLSTTFCVIQTLCPPETIFEWNKTSNPNPWEPELLNQLIQRYEEPNSSNRWDSPLFAILTPQDNITDYIDDICKVVFQTSKSAKNSGHNDPLSKGLQKPNSATVLKPASQSNFIQVLDIETSKIIKTIMNHIKSLTSIGGVSNGTRVIVSEGITDINDDGCFFVDLPIGNVVTLAQLQRLKRQFINFNKLRDIDQDRIGPLFADYLNKNLN
notes: Kti12, accessory protein of Elongator, S. cerevisiae; also called HA-tagged Kti12; source: S. cerevisiae KTI12-HA6 strains, in cell extract
Take B2: the binding result in test [3] is “binds”.
